The source of these data is article PMC3525571.

This test deals with EGF receptor (EGFR) (human (endogenous in HUVECs)) (UniProt P00533). Put plainly: co-IP; subconfluent HUVECs starved in serum-free M199 for 4 h, incubated with 0.5 µg recombinant protein for 30 min; EGFR immunoprecipitated with EGFR Ab, recombinant proteins detected by immunoblot with c-Myc Ab; rabbit IgG as negative control; only the binder purified.

No constants are given. Whether binding was seen depends on the method and setting. In cells and extracts the contact can be indirect. Some entries that bind do so weakly or less than the wild type.

“recombinant soluble CD93 protein with domains 1, 2 and 3 (rCD93D123) (from UniProt Q9NPY3 22-580) (domain or fragment)”: the binding entry is “binds”. Regarding “recombinant soluble CD93 protein with domains 2 and 3 (rCD93D23) (from UniProt Q9NPY3 258-580) (domain or fragment)”, the binding result was “binds”.

B1: recombinant CD93 domain 1 protein (rCD93D1) (domain or fragment, UniProt Q9NPY3 22-177)
chain: TGADTEAVVCVGTACYTAHSGKLSAAEAQNHCNQNGGNLATVKSKEEAQHVQRVLAQLLRREAALTARMSKFWIGLQREKGKCLDPSLPLKGFSWVGGGEDTPYSNWHKELRNSCISKRCVSLLLDLSQPLLPSRLPKWSEGPCGSPGSPGSNIEG
Regarding B1, the binding entry is on record as “no binding (tested: 0.5 µg of rCD93D1)”.
